From US8772329B2, “Compounds from mycelium of Antrodia cinnamomea and use thereof” (Simpson Biotech Co., Ltd., priority 2008, dated 2014)
Some of these results come from one statement about several compounds together. At least one compound was matched to its structure with a doubt left.

Target: T1, HCV NS3/4A protease (Hepatitis C virus genotype 1b, UniProt O92972)
T1 construct: HCV NS3/4A protease; purchased AnaSpec, San Jose, Calif., USA lot# Lot 046-047 (screening); lot# Lot 046-079 (mechanism study); catalogue number not given
Assay: HCV protease inhibition assay (SensoLyte 520 HCV Protease Assay Kit, FRET peptide substrate)
Format: biochemical
Conditions: result in words
Description: Since the mycelium of Antrodia cinnamomea was recently reported to be clinically effective for hepatitis patients infected with HCV (Akiba T et al. 2007. Clinical study of Shoshi on Japanese hepatitis patients infected with C type hepatitis virus. The second Taiwan and Japan Symposium on Antrodia cinnamomea, Abst. pp. 82-98), a SensoLyte™ 520 HCV protease assay kit was applied to investigate the HCV-protease inhibitory activity of the isolated antrodins, the metabolites of antrodin C as well as one metabolite analogue. The assay method with a quenched-fluorogenic peptide substrate can be used for measure the activity of inhibitors as well as for continuous recording of the progress of the enzyme reaction.
The mode of inhibition was kinetically analyzed by plotting the enzyme activity at different concentrations of the substrate (10, 50, 100 and 200 times dilution of the substrate stocking solution) with (5 μg/ml, and 10 μg/ml) and without [0 μg/ml (DMSO)] compound 1.
HCV NS3/4A protease (lot# Lot 046-047 for the screening and lot# Lot 046-079 for the mechanism study) and SensoLyte™ 520 HCV Protease Assay Kit *Fluorimetric* (lot# AK 71147-1005) were purchased from AnaSpec, San Jose, Calif., USA. The substrate was a 5-FAM/QXL™520 FRET peptide based on the sequence of Ac-Asp-Glu-Asp(EDANS)-Glu-Glu-Abu-Ψ-[COO]Ala-Ser-Lys(DABCYL)-NH2. The assay was carried out on BD Falcon™ Microtest™384-well 120 μl black assay plates (lot#05391155). Fluorescence was measured by TECAN GENios plate reader at excitation/emission 485/530 nm Chemical compounds. Antrodins A-E (compounds 1-5) were isolated from the mycelium of Antrodia cinnamomea as reported (Nakamura et al., 2004. Five new maleic and succinic acid derivatives from the mycelium of Antrodia comphorata and their cytotoxic effects on LLC tumor cell line. J Nat Prod 67: 46-48). Embelin used as a positive control was isolated in our laboratory in previous work (Hussein et al., 2000, Inhibitory effects of Sudanese medicinal plant extracts on hepatitis C virus (HCV) Protease. Phytother Res 14: 510-516). Compounds 6, 7a and 7b were detected as the metabolites of antrodin C in vivo. Compounds 7a and 7b were un-separable due to the equilibrium of these two compounds through compound 1. It was thus used for the assay as a mixture of compounds 1, 7a and 7b and named 7. Compound 8 was an analogue of another metabolite whose glycine group was supposed to connect to the other carboxyl group in the structure.
Compound 6 was dissolved in H2O and other compounds were dissolved in DMSO for the assay. To each well were added 2 μl of respective compound solution and 8 μl of freshly diluted enzyme (0.5 μg/ml). The reaction was started by adding 10 μl of freshly diluted substrate (100 times dilution of a DMSO stocking solution). After being incubated at room temperature (28° C.) for 30 min, the fluorescence intensities were measured at Ex/Em=485 nm/535 nm. Inhibition percentages were calculated as 100×(Fvehicle−Fsample)/Fvehicle=% inhibition, where F is the fluorescence value of vehicle control or of compound minus the fluorescence of the substrate control.

Row | SMILES | inhibitory activity on HCV protease
1 | CC(C)=CCOc1ccc(C2=C(CC(C)C)C(=O)OC2=O)cc1 [Compound 1, 3-isobutyl-4-[4-(3-methyl-2-butenyloxy)phenyl]furan-2,5-dione] | showed inhibitory activity on HCV protease
2 | CC(C)=CCOc1ccc(C2=C(CC(C)C)C(=O)N(O)C2=O)cc1 [Compound 3, 3-isobutyl-4-[4-(3-methyl-2-butenyloxy)phenyl]-1H-pyrrol-1-ol-2,5-dione] | showed inhibitory activity on HCV protease
3 | CC(C)=CCOc1ccc(C2C(=O)N(O)C(=O)C2CC(C)C)cc1 (centres unmarked) [Compound 4, 3R*,4S*-1-hydroxy-3-isobutyl-4-[4-(3-methyl-2-butenyloxy)phenyl]pyrrolidine-2,5-dione] | showed inhibitory activity on HCV protease
4 | CC(C)=CCOc1ccc(/C(C(=O)O)=C(\CC(C)C)C(=O)O)cc1 [Compound 6, (2Z)-2-isobutyl-3-{4-[(3-methylbut-2-en-1-yl)oxy]phenyl}but-2-enedioic acid] | showed activity too
5 | CC(C)=CCOc1ccc(/C(C(=O)NCC(=O)O)=C(\CC(C)C)C(=O)O)cc1 [Compound 8] | showed activity too
